Values from PubChem BioAssay AID504808 (Drosophila RNAi Screening Center, 2011)

- Screen: 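Fly genes required to hold E2F transcription in check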 (primary screen)
- Cells: Drosophila S2 cells
- Reagent: long dsRNA against Drosophila genes
- Measurement: 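Firefly luciferase driven by E2F sites, normalised to Renilla luciferase on the same minimal promoter, measured by plate reader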
- Reading the numbers: E2F firefly: higher = more E2F reporter activity; Renilla normaliser: higher = more normaliser reporter signal
- Call rule: 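Called active if the normalised E2F reporter went up by over 50%; the cutoff is arbitrary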
The screen tested about 21,000 reagents; below is an unselected part of those with a known target gene and a result. In the full data, 18 (0.084%) got an active call. 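Raw counts without plate normalisation, one of two replicates; the ratio scores behind the calls were not deposited.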 Unmarked entries are inactive. A plus sign joins genes that one reagent is predicted to hit. Reagent sequences are not shown. The record does not give: the amount of reagent, the time to read-out.

target,amplicon,"E2F firefly, rep 1","Renilla normaliser, rep 1"
CG30289,DRSC03870,1.28e5,4092
CG15043,DRSC19619,2.20e5,5626
ltl,DRSC10206,1.01e5,3993
ltl,DRSC10870,1.07e5,4300
tap,DRSC11402,1.78e5,9231
CG12567,DRSC20845,1.28e5,6835
CG2519,DRSC12312,81957,3651
Grip91,DRSC20249,7670,740
CG14135,DRSC10140,61509,1714
CG42539 (retired record),DRSC13691,80761,2832
Best2,DRSC09712,1.00e5,4018
CG13607,DRSC14610,1.22e5,5521
Arpc5,DRSC00730,1.54e5,5438
Psc,DRSC07518,1.07e5,4197
eIF2Bbeta,DRSC18465,90247,4497
lin,DRSC07644,1.38e5,4860
CG18549,DRSC15347,1.56e5,6653
NT1,DRSC08530,83206,3486
CG11050,DRSC02125,65346,2929
CG42724,DRSC12567,63491,4077
ebo,DRSC18787,1926,904
CG32544,DRSC20033,1.61e5,4435
sd,DRSC20370,1.37e5,6386
Rrp40,DRSC00074,1.30e5,6030
CG5883,DRSC10552,1.29e5,7273
GstE13,DRSC06083,3103,202
CG18128,DRSC04304,1.09e5,4551
CG5623,DRSC15848,1.27e5,6304
Nup54,DRSC07282,2819,206
pzg,DRSC11848,1.15e5 (active),146
Nsun5,DRSC15835,75645,4059
RpLP0,DRSC11878,83950,6081
CG15047,DRSC19623,1.62e5,6036
CG10185,DRSC14205,1.12e5,6235

The list goes on, starting with the last 3 of the part before.
target,amplicon,"E2F firefly, rep 1","Renilla normaliser, rep 1"
RpLP0,DRSC11878,83950,6081
CG15047,DRSC19623,1.62e5,6036
CG10185,DRSC14205,1.12e5,6235
Mal-A6,DRSC07233,1.36e5,5442
Prx2,DRSC20256,1.18e5,7303
mbc,DRSC16995,1.25e5,5720
fbp,DRSC02077,76565,3314
Gr64b,DRSC08444,94936,4218
CG13771,DRSC02277,1.40e5,4904
DIP-theta,DRSC00885,1.48e5,5399
DIP-theta,DRSC02340,1.52e5,4755
DIP-theta,DRSC02341,1.63e5,5412
Ogdh,DRSC09854,84054,3461
Ogdh,DRSC09855,1.51e5,9217
Ucp4C,DRSC03132,1.43e5,5186
CG4734,DRSC06885,1.10e5,4583
Taf12L,DRSC00467,1.54e5,4737
CG6793,DRSC10714,1.37e5,6740
Socs16D,DRSC20087,1.98e5,6558
CG14113,DRSC10116,1.27e5,7042
alpha-Man-IIa,DRSC15393,1.45e5,6127
ppl,DRSC11899,80738,4180
smg,DRSC11397,71877,3742
fln,DRSC11346,66556,3990
LRP1,DRSC07238,1.32e5,4694
CG30480,DRSC06736,94449,3859
boss,DRSC16916,1.14e5,5687
Idh3a,DRSC19446,1.36e5,6333
jb,DRSC20531,1.40e5,7138
CG11342,DRSC08175,85034,3792
CG42299 + CG42300,DRSC19680,2.30e5,6415
CG42299 + CG42300,DRSC19815,2.33e5,7230
CG7115,DRSC02000,1.54e5,4774
CG17321,DRSC02598,1.11e5,5355
CG12025,DRSC08230,94744,4106
CG10841,DRSC14271,83722,3713
Cyp6d4,DRSC16633,74231,3244
tRNA:Leu-CAA-2-3,DRSC13633,95522,2566
PIG-H,DRSC14856,1.66e5,7097
Atpalpha,DRSC14119,69244,3529
Ptip,DRSC10660,2.03e5,11214
Ptip,DRSC11048,1.70e5,6118
CG6996,DRSC10758,1.20e5,5679
CG3566,DRSC18311,80068,4293
drongo,DRSC00814,88371,4351
PIG-Q,DRSC19138,92857,2932
Mal-A1,DRSC07461,1.57e5,4933
CG14180 (retired record),DRSC10179,70152,6053
CG12523,DRSC09895,1.55e5,7428
CG8072,DRSC10960,78332,4235
HLH4C,DRSC18670,1.05e5,4726
GlcAT-P,DRSC10603,77966,3566
GlcAT-P,DRSC10604,82574,4631
